Experimental data taken from the supplement of paper PMC10849652.
The list shows a part of the results.

Sequences of proteins named here, by UniProt entry; tags and fusion partners are left off. A change or cut given only in a name is not applied to a line headed by its entry.
UniProt Q06413, whole entry, looked up: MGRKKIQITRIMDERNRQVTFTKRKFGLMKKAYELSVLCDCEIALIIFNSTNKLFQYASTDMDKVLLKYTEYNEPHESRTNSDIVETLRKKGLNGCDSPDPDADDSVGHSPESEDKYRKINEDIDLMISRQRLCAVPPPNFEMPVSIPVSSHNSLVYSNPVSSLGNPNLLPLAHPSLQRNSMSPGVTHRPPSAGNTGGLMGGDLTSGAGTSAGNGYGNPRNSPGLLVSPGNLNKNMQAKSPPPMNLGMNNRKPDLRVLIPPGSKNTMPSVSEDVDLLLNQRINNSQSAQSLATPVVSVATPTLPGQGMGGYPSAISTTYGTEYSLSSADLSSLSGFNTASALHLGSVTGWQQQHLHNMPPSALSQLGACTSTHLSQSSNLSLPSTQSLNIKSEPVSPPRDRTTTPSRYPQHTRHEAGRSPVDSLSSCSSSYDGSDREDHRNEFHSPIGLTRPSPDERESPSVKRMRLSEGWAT
UniProt Q8WXB1: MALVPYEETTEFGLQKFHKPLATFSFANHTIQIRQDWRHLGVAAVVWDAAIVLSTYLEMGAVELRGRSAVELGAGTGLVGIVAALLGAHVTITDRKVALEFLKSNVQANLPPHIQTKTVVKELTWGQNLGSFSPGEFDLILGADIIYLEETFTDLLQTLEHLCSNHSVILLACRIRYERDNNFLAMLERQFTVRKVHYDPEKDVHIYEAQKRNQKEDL
UniProt Q86XA0: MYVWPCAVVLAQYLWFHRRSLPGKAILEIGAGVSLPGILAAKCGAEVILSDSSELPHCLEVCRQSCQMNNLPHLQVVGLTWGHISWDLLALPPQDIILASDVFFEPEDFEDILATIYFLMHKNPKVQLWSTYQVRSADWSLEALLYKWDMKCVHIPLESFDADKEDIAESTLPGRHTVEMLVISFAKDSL
UniProt Q9H7H0: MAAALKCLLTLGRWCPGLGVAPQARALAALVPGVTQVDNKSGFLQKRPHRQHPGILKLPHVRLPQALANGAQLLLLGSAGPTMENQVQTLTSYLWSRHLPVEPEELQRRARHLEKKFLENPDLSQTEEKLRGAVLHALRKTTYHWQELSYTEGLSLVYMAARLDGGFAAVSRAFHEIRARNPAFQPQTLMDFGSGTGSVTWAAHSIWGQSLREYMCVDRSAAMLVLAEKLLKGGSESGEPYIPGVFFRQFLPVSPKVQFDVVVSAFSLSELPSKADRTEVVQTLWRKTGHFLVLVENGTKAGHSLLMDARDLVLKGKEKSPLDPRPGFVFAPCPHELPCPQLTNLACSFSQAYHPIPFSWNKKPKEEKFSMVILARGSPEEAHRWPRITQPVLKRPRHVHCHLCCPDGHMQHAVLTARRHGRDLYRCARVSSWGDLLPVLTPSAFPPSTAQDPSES
UniProt A1L020: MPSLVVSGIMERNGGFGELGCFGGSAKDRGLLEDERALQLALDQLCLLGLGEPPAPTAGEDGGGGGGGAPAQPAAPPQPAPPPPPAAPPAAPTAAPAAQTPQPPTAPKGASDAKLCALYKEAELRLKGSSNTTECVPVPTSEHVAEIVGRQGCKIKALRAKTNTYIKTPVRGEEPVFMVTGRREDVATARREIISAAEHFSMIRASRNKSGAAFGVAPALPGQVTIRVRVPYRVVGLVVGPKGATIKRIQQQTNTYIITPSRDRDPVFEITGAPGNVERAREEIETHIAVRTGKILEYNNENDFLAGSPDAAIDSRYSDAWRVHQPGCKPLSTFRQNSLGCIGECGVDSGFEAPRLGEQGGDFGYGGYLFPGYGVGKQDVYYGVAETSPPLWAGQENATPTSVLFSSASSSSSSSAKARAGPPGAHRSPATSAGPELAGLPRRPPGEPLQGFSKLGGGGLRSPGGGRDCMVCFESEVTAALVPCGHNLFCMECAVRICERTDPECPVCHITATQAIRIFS
UniProt O15151: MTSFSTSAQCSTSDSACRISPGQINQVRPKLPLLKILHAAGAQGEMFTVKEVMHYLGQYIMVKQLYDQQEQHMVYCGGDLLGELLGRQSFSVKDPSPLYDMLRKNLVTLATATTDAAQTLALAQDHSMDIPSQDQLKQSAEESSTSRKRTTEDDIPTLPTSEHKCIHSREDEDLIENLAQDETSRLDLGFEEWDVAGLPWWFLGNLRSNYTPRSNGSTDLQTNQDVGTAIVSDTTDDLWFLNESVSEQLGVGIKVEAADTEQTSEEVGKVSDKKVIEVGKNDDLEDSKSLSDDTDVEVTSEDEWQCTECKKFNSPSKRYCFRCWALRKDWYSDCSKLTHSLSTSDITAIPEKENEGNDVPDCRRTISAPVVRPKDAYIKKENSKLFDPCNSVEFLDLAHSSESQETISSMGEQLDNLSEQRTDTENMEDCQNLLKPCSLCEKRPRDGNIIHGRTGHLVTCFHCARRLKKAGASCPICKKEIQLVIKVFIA
UniProt P55083: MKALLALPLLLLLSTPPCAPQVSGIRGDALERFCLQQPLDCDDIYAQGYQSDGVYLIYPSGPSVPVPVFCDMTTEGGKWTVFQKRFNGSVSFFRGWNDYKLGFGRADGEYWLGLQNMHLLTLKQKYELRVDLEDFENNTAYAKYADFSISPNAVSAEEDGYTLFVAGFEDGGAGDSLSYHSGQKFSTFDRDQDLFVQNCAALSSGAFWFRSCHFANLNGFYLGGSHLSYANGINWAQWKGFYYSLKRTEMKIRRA
UniProt Q9H204: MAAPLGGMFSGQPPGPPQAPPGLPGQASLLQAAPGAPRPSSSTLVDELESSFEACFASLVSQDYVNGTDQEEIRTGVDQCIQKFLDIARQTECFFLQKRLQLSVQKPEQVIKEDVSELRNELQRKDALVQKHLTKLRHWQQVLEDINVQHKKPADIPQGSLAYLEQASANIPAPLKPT
UniProt A0JLT2: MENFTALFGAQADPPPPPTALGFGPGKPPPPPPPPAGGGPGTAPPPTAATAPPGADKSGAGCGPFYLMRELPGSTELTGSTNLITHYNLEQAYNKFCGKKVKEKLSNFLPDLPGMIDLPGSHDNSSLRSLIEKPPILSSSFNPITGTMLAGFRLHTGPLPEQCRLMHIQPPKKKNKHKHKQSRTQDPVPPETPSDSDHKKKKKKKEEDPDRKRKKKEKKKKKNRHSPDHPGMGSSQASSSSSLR
MCTS2P, A0A3B3IRV3, UniProt A0A3B3IRV3, whole entry, looked up: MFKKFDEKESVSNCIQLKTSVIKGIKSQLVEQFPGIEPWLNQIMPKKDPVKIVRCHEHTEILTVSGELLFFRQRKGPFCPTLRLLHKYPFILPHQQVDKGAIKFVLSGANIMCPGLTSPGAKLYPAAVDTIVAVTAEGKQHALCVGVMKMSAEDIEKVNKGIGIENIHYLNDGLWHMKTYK
UniProt Q6ZSS7: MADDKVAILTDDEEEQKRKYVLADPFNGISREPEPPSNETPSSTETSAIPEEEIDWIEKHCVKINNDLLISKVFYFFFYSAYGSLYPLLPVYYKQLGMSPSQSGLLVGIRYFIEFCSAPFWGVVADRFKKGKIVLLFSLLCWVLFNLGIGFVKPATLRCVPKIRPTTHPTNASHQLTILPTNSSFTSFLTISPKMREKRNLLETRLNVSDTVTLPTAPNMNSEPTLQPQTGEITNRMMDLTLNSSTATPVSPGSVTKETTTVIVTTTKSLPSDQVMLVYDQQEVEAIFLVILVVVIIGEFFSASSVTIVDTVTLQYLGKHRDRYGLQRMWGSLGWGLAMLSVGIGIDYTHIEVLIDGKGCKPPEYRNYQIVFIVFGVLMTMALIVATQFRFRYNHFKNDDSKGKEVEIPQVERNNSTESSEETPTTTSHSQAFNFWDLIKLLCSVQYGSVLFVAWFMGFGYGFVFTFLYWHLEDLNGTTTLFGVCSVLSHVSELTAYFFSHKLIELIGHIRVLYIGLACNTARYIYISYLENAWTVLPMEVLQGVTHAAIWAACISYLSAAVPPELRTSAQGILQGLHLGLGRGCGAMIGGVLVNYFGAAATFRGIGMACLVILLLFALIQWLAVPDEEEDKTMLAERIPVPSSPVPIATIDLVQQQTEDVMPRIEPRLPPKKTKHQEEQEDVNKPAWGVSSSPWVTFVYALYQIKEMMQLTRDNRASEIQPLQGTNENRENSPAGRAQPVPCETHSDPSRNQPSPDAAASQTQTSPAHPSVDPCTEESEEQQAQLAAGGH
UniProt Q8N6Q8: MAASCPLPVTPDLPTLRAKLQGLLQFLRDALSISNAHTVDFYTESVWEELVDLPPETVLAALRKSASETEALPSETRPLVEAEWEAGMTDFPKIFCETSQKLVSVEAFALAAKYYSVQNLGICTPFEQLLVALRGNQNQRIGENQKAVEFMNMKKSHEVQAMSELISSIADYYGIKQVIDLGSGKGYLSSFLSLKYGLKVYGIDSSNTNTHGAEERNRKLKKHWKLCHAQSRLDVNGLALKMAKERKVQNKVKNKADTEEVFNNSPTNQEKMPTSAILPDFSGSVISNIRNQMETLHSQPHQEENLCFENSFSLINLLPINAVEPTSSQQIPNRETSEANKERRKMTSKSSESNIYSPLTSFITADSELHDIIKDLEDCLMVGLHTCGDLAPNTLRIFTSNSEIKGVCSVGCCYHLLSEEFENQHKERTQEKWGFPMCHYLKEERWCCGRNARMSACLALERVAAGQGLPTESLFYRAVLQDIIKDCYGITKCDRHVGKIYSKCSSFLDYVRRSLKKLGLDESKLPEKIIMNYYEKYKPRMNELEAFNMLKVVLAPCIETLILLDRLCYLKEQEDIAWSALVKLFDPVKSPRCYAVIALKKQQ
UniProt Q5U5Q3: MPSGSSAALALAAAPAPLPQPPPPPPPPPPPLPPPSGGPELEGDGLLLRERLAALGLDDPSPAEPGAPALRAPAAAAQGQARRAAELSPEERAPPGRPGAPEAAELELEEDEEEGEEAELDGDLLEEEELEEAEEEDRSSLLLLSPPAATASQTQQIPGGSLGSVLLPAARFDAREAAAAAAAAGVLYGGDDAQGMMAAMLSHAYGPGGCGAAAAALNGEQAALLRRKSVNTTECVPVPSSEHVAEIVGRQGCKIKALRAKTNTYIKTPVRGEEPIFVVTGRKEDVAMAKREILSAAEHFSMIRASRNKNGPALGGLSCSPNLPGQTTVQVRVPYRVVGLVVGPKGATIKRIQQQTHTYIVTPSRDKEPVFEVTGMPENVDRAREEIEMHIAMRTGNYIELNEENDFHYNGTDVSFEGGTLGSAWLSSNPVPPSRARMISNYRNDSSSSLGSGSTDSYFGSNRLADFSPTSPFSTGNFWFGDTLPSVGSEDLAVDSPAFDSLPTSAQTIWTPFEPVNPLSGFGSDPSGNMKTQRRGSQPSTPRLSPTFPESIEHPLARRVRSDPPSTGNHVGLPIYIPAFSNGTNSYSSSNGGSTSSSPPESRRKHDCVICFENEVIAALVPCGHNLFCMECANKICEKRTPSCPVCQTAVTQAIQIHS
UniProt Q9Y3C7: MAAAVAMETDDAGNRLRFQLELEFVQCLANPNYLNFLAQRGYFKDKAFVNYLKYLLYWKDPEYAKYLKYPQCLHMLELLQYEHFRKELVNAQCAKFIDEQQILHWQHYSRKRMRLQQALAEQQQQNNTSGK
UniProt Q9NX70: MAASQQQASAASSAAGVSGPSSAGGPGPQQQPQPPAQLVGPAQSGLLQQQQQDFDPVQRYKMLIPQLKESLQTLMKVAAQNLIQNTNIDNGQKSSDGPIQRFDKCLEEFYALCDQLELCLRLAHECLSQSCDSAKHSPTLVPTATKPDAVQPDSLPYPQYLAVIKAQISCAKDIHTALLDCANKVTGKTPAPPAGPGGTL
UniProt Q9NWR8: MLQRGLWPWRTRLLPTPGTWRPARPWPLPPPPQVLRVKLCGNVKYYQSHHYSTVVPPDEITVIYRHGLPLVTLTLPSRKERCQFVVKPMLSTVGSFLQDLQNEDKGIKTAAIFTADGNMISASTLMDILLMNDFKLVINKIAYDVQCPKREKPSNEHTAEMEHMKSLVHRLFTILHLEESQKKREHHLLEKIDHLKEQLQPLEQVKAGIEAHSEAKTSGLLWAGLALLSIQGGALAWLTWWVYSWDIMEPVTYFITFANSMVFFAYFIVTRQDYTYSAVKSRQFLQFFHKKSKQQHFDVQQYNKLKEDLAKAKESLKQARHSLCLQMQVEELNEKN
UniProt Q5TF39: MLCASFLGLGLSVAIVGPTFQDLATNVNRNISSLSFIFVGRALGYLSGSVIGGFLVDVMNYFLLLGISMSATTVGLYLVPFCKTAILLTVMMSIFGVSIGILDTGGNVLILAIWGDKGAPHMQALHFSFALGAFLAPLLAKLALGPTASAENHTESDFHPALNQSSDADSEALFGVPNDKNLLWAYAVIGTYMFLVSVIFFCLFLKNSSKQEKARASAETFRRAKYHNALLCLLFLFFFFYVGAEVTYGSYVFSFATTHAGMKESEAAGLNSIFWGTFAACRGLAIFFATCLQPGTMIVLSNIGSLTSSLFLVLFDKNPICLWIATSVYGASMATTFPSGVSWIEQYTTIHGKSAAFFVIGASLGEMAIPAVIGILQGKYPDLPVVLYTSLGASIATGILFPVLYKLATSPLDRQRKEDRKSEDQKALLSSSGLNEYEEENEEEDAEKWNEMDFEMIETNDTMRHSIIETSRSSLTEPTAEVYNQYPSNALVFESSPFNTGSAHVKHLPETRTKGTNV
UniProt P21741: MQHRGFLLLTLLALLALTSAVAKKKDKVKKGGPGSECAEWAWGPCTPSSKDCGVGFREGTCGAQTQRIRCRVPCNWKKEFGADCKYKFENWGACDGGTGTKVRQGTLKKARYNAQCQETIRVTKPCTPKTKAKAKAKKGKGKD

Key:
Test in all cases: log2 fold change, soluble protein after heating vs DMSO (PISA); higher = thermal stabilisation; K562 lysate, 10 uM; active = over 0.2 and 3.5 SD of the protein, either way, in both replicates (recomputed)
[1] = compound: C/C(=N\NC(=O)C1=CC(=CC=C1)S(=O)(=O)N2CCOCC2)/C3=C(C=CC(=C3)Cl)O
Method in brief: (§1)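 Following dounce homogenisation of K562 pellets in PBS pH 7.4 with 1 mM MgCl2, crude extract at 1 mg/mL protein was incubated for 30 min with 10 μM compound. Aliquots were then heated for 3 min over 48°C-58°C and pooled, NP-40 was added to 0.5% at 4°C, and soluble protein was recovered as the supernatant at 21,000xg for 90 min. Channel-sum-equalised TMTpro 16plex LC-MS/MS quantified this protein. Each value, from duplicates, is a log-two fold change in thermal stability relative to solvent controls.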

[2] = compound: C1=CC2=C(C=CC(=C2)/C=C\3/C(=O)NC(=NCC4=CC=CS4)S3)N=C1
Method in brief: as §1

[3] = compound: C1=CC=C2C(=C1)C3=NNC4=CC=CC(=C43)C2=O
Method in brief: as §1

[4] = compound: C1CCN(C1)C(=O)NC2=CC=CC(=C2)NC3=NC=C(C(=N3)NCCC4=CN=CN4)Br
Method in brief: as §1

[5] = compound: C1CN(CCC1(CC2=CC=C(C=C2)Cl)N)C3=NC=NC4=C3C=CN4
Method in brief: as §1

[6] = compound: C1=CC=C(C=C1)C2=NC(=C(N2)C3=CC=NC=C3)C4=CC(=C(C=C4)Cl)O
Method in brief: as §1

IRAK-1-4 Inhibitor I = compound: C1COCCN1CCN2C3=CC=CC=C3N=C2NC(=O)C4=CC(=CC=C4)[N+](=O)[O-] [IRAK-1-4 Inhibitor I]
Method in brief: as §1

erlotinib = compound: C#Cc1cccc(Nc2ncnc3cc(OCCOC)c(OCCOC)cc23)c1 [erlotinib]
Method in brief: as §1

[7] = compound: C1=CC(=CC=C1C2=NC3=C(N2)C=C(C=C3)C(=O)N)OC4=CC=C(C=C4)Cl
Method in brief: as §1

[8] = compound: C1=CC2=NC=CN=C2C=C1/C=C/3\C(=O)NC(=O)S3
Method in brief: as §1

Measured: log2 fold change

MEF2C isoform 2 (UniProt Q06413)
inactive: [1] 0.076 | [2] -0.003 | [3] -0.124 | [4] 0.082 | [5] 0.051

METTL15 (UniProt A6NJ78)
inactive: [1] -0.034 | [2] -0.343 | [6] -0.032 | [3] 0.114 | IRAK-1-4 Inhibitor I 0.025

MED25 isoform 3 (UniProt Q71SY5)
inactive: erlotinib 0.092 | [7] 0.01 | [8] -0.062 | [6] -0.006 | [4] 0.06 | [5] 0.073 | IRAK-1-4 Inhibitor I 0.073

METTL21A (UniProt Q8WXB1)
inactive: erlotinib -0.074 | [7] -0.011 | [8] 0.019 | [6] -0.027 | IRAK-1-4 Inhibitor I -0.04

METTL23 (UniProt Q86XA0)
inactive: [1] -0.512 | [2] -0.261 | [3] 0.075 | [4] 0.003 | [5] -0.02

METTL17 isoform 3 (UniProt Q9H7H0)
inactive: [4] -0.005 | [5] -0.035

METTL6 (UniProt Q8TCB7)
inactive: [1] -0.003 | [2] 0.032 | [8] -0.036 | [6] -0.247 | [3] 0.033 | [4] -0.03 | [5] 0.083 | IRAK-1-4 Inhibitor I -0.002

MEX3A (UniProt A1L020)
inactive: [1] 0.108 | [2] -0.108 | [6] -0.007 | [3] -0.29 | IRAK-1-4 Inhibitor I 0.168

MDM4 (UniProt O15151)
inactive: [1] 0.045 | [2] -0.122 | [3] -0.137 | [4] -0.603 | [5] 0.358

MBTD1 (UniProt Q05BQ5)
inactive: [6] -0.031 | IRAK-1-4 Inhibitor I 0.066

MFAP4 isoform 2 (UniProt P55083)
inactive: [4] -0.006 | [5] -0.177

METTL5 (UniProt H0YFV5)
inactive: erlotinib 0.073 | [7] 0.102 | [8] -0.051

MED6 (UniProt O75586)
inactive: [1] -0.261 | [2] -0.004 | [8] 0.051 | [6] 0.07 | [3] 0.009 | [4] 0.011 | [5] -0.087 | IRAK-1-4 Inhibitor I -0.08

MATK isoform 2 (UniProt P42679)
inactive: [6] -0.077 | IRAK-1-4 Inhibitor I 0.067

METTL9 (UniProt Q9H1A3)
inactive: erlotinib 0.111 | [7] -0.238 | [8] 0.027 | [6] 0.044 | IRAK-1-4 Inhibitor I 0.032

MED21 (UniProt Q13503)
inactive: erlotinib 0.068 | [7] -0.179 | [8] -0.232 | [6] -0.119 | [4] 0.27 | [5] -0.076 | IRAK-1-4 Inhibitor I -0.073

METTL7B (UniProt Q6UX53)
inactive: erlotinib -0.14 | [7] 0

MED28 (UniProt Q9H204)
inactive: erlotinib 0.057 | [7] 0.039 | [6] 0.045 | IRAK-1-4 Inhibitor I -0.012

MED19 (UniProt A0JLT2)
inactive: [1] 0.083 | [2] -0.031 | [8] 0.047 | [6] 0.06 | [3] 0.001 | IRAK-1-4 Inhibitor I 0.084

Taken from the listing (three entries):
METTL6 (UniProt Q8TCB7)
inactive: [1] -0.003 | [2] 0.032 | [8] -0.036 | [6] -0.247 | [3] 0.033 | [4] -0.03 | [5] 0.083 | IRAK-1-4 Inhibitor I -0.002

MEX3A (UniProt A1L020)
inactive: [1] 0.108 | [2] -0.108 | [6] -0.007 | [3] -0.29 | IRAK-1-4 Inhibitor I 0.168

MDM4 (UniProt O15151)
inactive: [1] 0.045 | [2] -0.122 | [3] -0.137 | [4] -0.603 | [5] 0.358

(cont.)

MCTS2P, A0A3B3IRV3
inactive: erlotinib 0.095 | [7] 0.146 | [6] -0.039 | IRAK-1-4 Inhibitor I 0

MFSD6 (UniProt Q6ZSS7)
inactive: erlotinib 0.107 | [7] -0.016 | [8] -0.026 | [6] -0.075 | [4] -0.17 | [5] 0.08 | IRAK-1-4 Inhibitor I -0.024

METTL25 (UniProt Q8N6Q8)
inactive: [1] -0.042 | [2] 0.006 | [8] 0.073 | [6] -0.104 | [3] -0.103 | [4] -0.204 | [5] 0.007 | IRAK-1-4 Inhibitor I -0.009

MFSD14B (UniProt Q5SR56)
inactive: erlotinib 0.016 | [7] 0.081 | [6] -0.237 | [4] 0.031 | [5] 0.142 | IRAK-1-4 Inhibitor I 0.105

MEX3C (UniProt Q5U5Q3)
inactive: erlotinib -0.044 | [7] 0.11

MED31 (UniProt Q9Y3C7)
inactive: erlotinib 0.043 | [7] -0.027 | [8] -0.021 | [6] 0.021 | IRAK-1-4 Inhibitor I -0.064

METTL2B (UniProt Q6P1Q9)
inactive: [8] 0.083

MED29 (UniProt Q9NX70)
inactive: erlotinib 0.092 | [7] -0.046 | [6] -0.048 | IRAK-1-4 Inhibitor I 0

MEIS1 (UniProt O00470)
inactive: [8] -0.156 | [4] 0.052 | [5] 0.232

MCRS1 isoform 2 (UniProt Q96EZ8)
inactive: [1] 0.091 | [2] -0.02 | [8] -0.097 | [3] 0.039

MCUB (UniProt Q9NWR8)
inactive: erlotinib 0.048 | [7] -0.069 | [8] 0.209 | [6] 0.048 | IRAK-1-4 Inhibitor I -0.12

MFSD11 (UniProt O43934)
inactive: erlotinib -0.043 | [7] 0.018 | [8] -0.052 | [6] 0.011 | IRAK-1-4 Inhibitor I 0.01

MFSD4B (UniProt Q5TF39)
inactive: erlotinib -0.021 | [7] -0.03 | [8] 0.239 | [6] 0.02 | [4] -0.217 | [5] 0.094 | IRAK-1-4 Inhibitor I -0.078

MDK (UniProt P21741)
inactive: erlotinib 0.031 | [7] -0.137 | [6] 0.05 | [4] -0.107 | [5] 0.025 | IRAK-1-4 Inhibitor I -0.046
